{
  "sequences": {"note": "Amino acid sequences for entries named in this document (tags omitted). Residues count along the entry.", "UniProt Q76MJ5, residues 35-926": "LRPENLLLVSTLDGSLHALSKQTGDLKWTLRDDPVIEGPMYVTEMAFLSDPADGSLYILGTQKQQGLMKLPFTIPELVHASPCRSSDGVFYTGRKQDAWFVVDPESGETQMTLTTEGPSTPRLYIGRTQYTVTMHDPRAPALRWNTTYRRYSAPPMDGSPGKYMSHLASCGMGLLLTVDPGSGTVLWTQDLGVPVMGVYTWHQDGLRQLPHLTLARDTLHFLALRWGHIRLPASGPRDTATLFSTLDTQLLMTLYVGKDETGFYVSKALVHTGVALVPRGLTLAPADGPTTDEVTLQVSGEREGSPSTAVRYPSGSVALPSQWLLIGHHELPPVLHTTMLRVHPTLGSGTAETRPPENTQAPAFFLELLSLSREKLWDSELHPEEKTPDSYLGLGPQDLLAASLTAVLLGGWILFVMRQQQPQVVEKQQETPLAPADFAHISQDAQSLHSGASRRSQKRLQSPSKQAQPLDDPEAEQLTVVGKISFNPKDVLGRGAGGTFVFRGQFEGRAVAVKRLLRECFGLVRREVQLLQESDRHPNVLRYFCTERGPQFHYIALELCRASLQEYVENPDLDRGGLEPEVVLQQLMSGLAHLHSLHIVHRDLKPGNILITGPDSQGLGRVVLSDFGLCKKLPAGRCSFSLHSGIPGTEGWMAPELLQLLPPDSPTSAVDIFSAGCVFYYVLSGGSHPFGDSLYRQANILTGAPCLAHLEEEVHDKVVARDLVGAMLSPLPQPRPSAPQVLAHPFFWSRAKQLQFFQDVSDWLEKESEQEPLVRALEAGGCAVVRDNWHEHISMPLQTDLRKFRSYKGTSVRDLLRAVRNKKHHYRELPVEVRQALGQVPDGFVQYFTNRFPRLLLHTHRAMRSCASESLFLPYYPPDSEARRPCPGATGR", "UniProt O75460, residues 19-977": "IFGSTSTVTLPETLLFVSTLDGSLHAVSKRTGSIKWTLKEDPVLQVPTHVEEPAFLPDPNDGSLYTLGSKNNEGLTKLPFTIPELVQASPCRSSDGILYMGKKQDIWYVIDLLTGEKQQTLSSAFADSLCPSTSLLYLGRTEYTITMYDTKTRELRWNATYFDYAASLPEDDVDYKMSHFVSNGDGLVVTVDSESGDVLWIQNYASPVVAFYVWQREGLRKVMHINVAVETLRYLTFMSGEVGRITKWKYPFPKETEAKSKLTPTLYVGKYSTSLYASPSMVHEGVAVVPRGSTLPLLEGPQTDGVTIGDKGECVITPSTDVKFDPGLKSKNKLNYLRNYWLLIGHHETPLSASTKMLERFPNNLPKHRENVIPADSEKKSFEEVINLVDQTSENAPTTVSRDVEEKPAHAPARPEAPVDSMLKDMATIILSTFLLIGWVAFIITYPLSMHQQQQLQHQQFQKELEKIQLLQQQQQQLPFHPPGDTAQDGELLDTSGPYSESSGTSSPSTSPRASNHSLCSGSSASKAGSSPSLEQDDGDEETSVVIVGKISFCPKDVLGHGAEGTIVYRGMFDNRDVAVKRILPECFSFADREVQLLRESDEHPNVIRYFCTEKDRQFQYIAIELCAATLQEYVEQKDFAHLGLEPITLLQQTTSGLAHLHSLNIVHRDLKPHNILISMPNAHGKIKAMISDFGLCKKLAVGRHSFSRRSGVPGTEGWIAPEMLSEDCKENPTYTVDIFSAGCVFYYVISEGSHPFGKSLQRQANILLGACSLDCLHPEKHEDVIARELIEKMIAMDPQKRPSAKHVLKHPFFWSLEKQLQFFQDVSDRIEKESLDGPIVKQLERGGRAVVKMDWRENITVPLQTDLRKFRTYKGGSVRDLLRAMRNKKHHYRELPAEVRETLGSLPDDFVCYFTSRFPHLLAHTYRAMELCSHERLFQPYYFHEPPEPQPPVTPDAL", "UniProt O95994, residues 21-175": "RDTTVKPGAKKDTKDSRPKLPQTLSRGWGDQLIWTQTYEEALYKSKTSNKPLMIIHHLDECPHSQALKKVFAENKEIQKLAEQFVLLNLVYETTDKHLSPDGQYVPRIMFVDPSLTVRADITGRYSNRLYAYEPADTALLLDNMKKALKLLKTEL"},
  "source": "paper PMC10907643",
  "molecules": {"B1": {"name": "CDC37 (protein, UniProt Q16543 1-378)", "chain": "MVDYSVWDHIEVSDDEDETHPNIDTASLFRWRHQARVERMEQFQKEKEELDRGCRECKRKVAECQRKLKELEVAEGGKAELERLQAEAQQLRKEERSWEQKLEEMRKKEKSMPWNVDTLSKDGFSKSMVNTKPEKTEEDSEEVREQKHKTFVEKYEKQIKHFGMLRRWDDSQKYLSDNVHLVCEETANYLVIWCIDLEVEEKCALMEQVAHQTIVMQFILELAKSLKVDPRACFRQFFTKIKTADRQYMEGFNDELEAFKERVRGRAKLRIEKAMKEYEEEERKKRLGPGGLDPVEVYESLPEELQKCFDVKDVQMLQDAISKMDPTDAKYHMQRCIDSGLWVPNSKASEAKEGEEAGPGDPLLEAVPKTGDEKDVSV"}},
  "key": {"[1]": {"target": "IRE1β-FLAG (doxycycline-inducible, in LS174T cells) (human) (UniProt Q76MJ5)", "assay": "affinity purification with mass spectrometry; anti-FLAG (BioM2 on streptavidin Dynabeads) precipitation of IRE1α-FLAG or IRE1β-FLAG from LS174T lysates after 24 h doxycycline; 50 mM HEPES-KOH pH 8.0, 100 mM KCl, 2 mM EDTA, 0.1% NP-40, 1 mM DTT; 2 h at 4 °C; label-free quantification against empty vector control"}, "[2]": {"target": "IRE1α-FLAG (doxycycline-inducible, in LS174T cells) (human) (UniProt O75460)", "assay": "affinity purification with mass spectrometry; anti-FLAG (BioM2 on streptavidin Dynabeads) precipitation of IRE1α-FLAG or IRE1β-FLAG from LS174T lysates after 24 h doxycycline; 50 mM HEPES-KOH pH 8.0, 100 mM KCl, 2 mM EDTA, 0.1% NP-40, 1 mM DTT; 2 h at 4 °C; label-free quantification against empty vector control"}},
  "note": "These are yes or no findings as the source states them, for the method shown. In cells and extracts the contact can be indirect. A yes stands for co-enrichment or nearness to the bait. Other partners may have been found.",
  "data": [
    {"molecule": "AGR2 (endogenous in LS174T cells) (from UniProt O95994 21-175)", "values": [
      {"measurement": "binding", "setting": "[1]", "value": "binds"}
    ]},
    {"molecule": "B1", "values": [
      {"measurement": "binding", "setting": "[1]", "value": "binds"},
      {"measurement": "binding", "setting": "[2]", "value": "binds"}
    ]}
  ]
}
